Our source for the binding values is article doi:10.1101/2021.11.19.469212.

By UniProt entry, the sequences of proteins in these tests, tags left out.
UniProt Q96CW1: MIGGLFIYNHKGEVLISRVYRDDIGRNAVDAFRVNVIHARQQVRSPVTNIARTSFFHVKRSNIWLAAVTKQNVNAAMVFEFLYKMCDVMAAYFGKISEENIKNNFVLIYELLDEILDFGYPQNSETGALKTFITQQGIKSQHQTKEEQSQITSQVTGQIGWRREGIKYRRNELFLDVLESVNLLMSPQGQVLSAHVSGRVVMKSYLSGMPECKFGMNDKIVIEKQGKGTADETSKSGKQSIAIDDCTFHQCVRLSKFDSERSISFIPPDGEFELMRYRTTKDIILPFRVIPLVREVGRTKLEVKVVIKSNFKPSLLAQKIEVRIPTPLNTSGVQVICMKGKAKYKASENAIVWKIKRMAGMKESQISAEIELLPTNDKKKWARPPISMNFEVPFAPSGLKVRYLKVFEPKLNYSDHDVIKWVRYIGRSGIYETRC
UniProt O43426: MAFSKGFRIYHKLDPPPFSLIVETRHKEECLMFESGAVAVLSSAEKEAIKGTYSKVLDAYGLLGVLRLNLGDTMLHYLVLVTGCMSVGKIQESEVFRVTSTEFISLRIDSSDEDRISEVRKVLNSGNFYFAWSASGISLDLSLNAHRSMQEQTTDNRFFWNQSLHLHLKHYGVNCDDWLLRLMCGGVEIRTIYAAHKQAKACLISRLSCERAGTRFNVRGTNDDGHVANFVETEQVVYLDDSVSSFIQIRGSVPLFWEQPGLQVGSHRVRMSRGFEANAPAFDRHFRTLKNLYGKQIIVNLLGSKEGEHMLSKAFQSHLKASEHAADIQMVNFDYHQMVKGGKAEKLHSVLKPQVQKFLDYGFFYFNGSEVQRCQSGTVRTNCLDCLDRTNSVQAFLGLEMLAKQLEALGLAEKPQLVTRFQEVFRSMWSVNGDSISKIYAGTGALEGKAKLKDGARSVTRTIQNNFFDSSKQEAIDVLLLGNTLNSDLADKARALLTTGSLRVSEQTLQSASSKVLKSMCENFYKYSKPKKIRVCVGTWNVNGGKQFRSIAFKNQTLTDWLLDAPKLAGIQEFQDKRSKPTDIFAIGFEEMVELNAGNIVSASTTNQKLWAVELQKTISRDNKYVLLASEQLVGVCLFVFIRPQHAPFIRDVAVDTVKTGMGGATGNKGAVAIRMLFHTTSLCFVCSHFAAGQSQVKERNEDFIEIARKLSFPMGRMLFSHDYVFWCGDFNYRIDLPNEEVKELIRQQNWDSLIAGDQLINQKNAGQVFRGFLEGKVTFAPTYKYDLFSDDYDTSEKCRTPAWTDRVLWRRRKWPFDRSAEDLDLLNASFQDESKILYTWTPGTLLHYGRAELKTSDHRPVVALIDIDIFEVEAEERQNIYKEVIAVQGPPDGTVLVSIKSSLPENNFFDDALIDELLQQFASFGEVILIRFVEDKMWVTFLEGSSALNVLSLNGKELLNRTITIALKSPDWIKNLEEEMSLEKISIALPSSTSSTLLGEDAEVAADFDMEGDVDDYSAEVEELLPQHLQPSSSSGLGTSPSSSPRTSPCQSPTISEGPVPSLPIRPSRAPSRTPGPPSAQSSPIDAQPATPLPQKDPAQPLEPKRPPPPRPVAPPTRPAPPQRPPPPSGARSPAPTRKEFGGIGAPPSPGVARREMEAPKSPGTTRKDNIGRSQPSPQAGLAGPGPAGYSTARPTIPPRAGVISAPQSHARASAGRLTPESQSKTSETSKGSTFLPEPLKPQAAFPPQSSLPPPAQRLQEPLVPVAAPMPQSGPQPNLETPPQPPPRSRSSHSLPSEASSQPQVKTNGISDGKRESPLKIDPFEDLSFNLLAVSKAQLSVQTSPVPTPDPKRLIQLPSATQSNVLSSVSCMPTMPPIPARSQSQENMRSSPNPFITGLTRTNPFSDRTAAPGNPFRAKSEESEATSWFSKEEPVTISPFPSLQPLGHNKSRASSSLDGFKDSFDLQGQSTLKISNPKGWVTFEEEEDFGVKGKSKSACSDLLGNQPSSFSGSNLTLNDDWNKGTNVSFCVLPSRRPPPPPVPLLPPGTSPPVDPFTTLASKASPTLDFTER

Experiment in all cases: proximity labelling
Assay [1] has as its target AP2μ^EN-TurboID-V5 (human (endogenous in HeLa)) (UniProt Q96CW1).
Assay [2] has as its target T1, V5-TurboID-CLCa^EN (human (endogenous in HeLa)) (UniProt P09496).
T1 sequence: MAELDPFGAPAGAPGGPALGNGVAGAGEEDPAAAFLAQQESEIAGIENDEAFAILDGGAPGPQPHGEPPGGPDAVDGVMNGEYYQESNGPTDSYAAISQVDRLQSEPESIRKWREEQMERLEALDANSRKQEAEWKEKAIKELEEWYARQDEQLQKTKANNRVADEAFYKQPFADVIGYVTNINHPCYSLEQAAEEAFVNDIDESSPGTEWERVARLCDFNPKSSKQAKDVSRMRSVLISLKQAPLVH

Assay [3] deals with T2, AP4μ^EN-TurboID-V5 (human (endogenous in HeLa)) (UniProt O00189).
T2 sequence: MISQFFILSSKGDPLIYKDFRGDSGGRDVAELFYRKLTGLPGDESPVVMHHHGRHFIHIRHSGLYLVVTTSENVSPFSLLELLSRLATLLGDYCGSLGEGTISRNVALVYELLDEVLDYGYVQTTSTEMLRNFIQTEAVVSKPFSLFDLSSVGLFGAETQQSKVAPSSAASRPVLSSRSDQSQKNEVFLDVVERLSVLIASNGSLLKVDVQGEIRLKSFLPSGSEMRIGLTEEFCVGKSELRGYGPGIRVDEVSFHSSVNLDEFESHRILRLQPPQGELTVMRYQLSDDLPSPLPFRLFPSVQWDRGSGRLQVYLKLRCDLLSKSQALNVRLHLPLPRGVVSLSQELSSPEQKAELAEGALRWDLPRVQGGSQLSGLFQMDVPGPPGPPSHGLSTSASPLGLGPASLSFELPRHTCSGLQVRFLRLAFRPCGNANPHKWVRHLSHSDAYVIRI

No constants are given. Whether binding was seen depends on the method and setting. Binding seen in cells or lysates may run through a third protein. Here binding means that the protein was enriched with, or labelled near, the bait; the list need not be complete. For part of these data: Where a sequence is shown, tags or fusion partners need not be part of it.

For the molecule “Synaptojanin-1 (SYNJ1) (from UniProt O43426 1-1573)”, the binding entry in assay [1] and in assay [2] was “binds” each time.

B1: Tepsin (ENTDH2) (protein, UniProt Q96N21 1-525)
chain: MAAAPPLRDRLSFLHRLPILLKGTSDDDVPCPGYLFEEIAKISHESPGSSQCLLEYLLSRLHSSSGHGKLKVLKILLYLCSHGSSFFLLILKRNSAFIQEAAAFAGPPDPLHGNSLYQKVRAAAQDLGSTLFSDTVLPLAPSQPLGTPPATGMGSQARPHSTLQGFGYSKEHGRTAVRHQPGQAGGGWDELDSGPSSQNSSQNSDLSRVSDSGSHSGSDSHSGASREPGDLAERVEVVALSDCQQELSLVRTVTRGPRAFLSREEAQHFIKACGLLNCEAVLQLLTCHLRGTSECTQLRALCAIASLGSSDLLPQEHILLRTRPWLQELSMGSPGPVTNKATKILRHFEASCGQLSPARGTSAEPGPTAALPGPSDLLTDAVPLPGSQVFLQPLSSTPVSSRSPAPSSGMPSSPVPTPPPDASPIPAPGDPSEAEARLAESRRWRPERIPGGTDSPKRGPSSCAWSRDSLFAGMELVACPRLVGAGAAAGESCPDAPRAPQTSSQRTAAKEPPGSEPSAFAFLNA
For B1, the binding result in assay [3] is reported as “binds”.

B2: protein numb like (NUMB) (protein, UniProt P49757 1-651)
chain: MNKLRQSFRRKKDVYVPEASRPHQWQTDEEGVRTGKCSFPVKYLGHVEVDESRGMHICEDAVKRLKAERKFFKGFFGKTGKKAVKAVLWVSADGLRVVDEKTKDLIVDQTIEKVSFCAPDRNFDRAFSYICRDGTTRRWICHCFMAVKDTGERLSHAVGCAFAACLERKQKREKECGVTATFDASRTTFTREGSFRVTTATEQAEREEIMKQMQDAKKAETDKIVVGSSVAPGNTAPSPSSPTSPTSDATTSLEMNNPHAIPRRHAPIEQLARQGSFRGFPALSQKMSPFKRQLSLRINELPSTMQRKTDFPIKNAVPEVEGEAESISSLCSQITNAFSTPEDPFSSAPMTKPVTVVAPQSPTFQANGTDSAFHVLAKPAHTALAPVAMPVRETNPWAHAPDAANKEIAATCSGTEWGQSSGAASPGLFQAGHRRTPSEADRWLEEVSKSVRAQQPQASAAPLQPVLQPPPPTAISQPASPFQGNAFLTSQPVPVGVVPALQPAFVPAQSYPVANGMPYPAPNVPVVGITPSQMVANVFGTAGHPQAAHPHQSPSLVRQQTFPHYEASSATTSPFFKPPAQHLNGSAAFNGVDDGRLASADRHTEVPTGTCPVDPFEAQWAALENKSKQRTNPSPTNPFSSDLQKTFEIEL
With B2, the binding result in assay [1] and in assay [2] was “binds” throughout.

B3: ATG9A (protein, UniProt Q7Z3C6 1-839)
chain: MAQFDTEYQRLEASYSDSPPGEEDLLVHVAEGSKSPWHHIENLDLFFSRVYNLHQKNGFTCMLIGEIFELMQFLFVVAFTTFLVSCVDYDILFANKMVNHSLHPTEPVKVTLPDAFLPAQVCSARIQENGSLITILVIAGVFWIHRLIKFIYNICCYWEIHSFYLHALRIPMSALPYCTWQEVQARIVQTQKEHQICIHKRELTELDIYHRILRFQNYMVALVNKSLLPLRFRLPGLGEAVFFTRGLKYNFELILFWGPGSLFLNEWSLKAEYKRGGQRLELAQRLSNRILWIGIANFLLCPLILIWQILYAFFSYAEVLKREPGALGARCWSLYGRCYLRHFNELEHELQSRLNRGYKPASKYMNCFLSPLLTLLAKNGAFFAGSILAVLIALTIYDEDVLAVEHVLTTVTLLGVTVTVCRSFIPDQHMVFCPEQLLRVILAHIHYMPDHWQGNAHRSQTRDEFAQLFQYKAVFILEELLSPIVTPLILIFCLRPRALEIIDFFRNFTVEVVGVGDTCSFAQMDVRQHGHPQWLSAGQTEASVYQQAEDGKTELSLMHFAITNPGWQPPRESTAFLGFLKEQVQRDGAAASLAQGGLLPENALFTSIQSLQSESEPLSLIANVVAGSSCRGPPLPRDLQGSRHRAEVASALRSFSPLQPGQAPTGRAHSTMTGSGVDARTASSGSSVWEGQLQSLVLSEYASTEMSLHALYMHQLHKQQAQAEPERHVWHRRESDESGESAPDEGGEGARAPQSIPRSASYPCAAPRPGAPETTALHGGFQRRYGGITDPGTVPRVPSHFSRLPLGGWAEDGQSASRHPEPVPEEGSEDELPPQVHKV
On to B3, for which the binding entry in assay [3] is given as “binds”.
